# Assay results reported in PubChem BioAssay AID2685 (National Center for Advancing Translational Sciences (NCATS), 2010).
# Some of the results follow. Shown are side measurements of this screen, not its main read-out; they come without a call. The list favours compounds with an active or inconclusive main result. Potencies come from curve fits of mixed quality, noted in brackets.
# Test: qHTS Assay for Lipid Storage Modulators in Drosophila S3 Cells;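 for cell number change: cells counted by Cell Tracker Red CMTPX staining in the red channel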
# Details: BODIPY lipid droplet fluorescence, 18-24 h; for cell number change: measured here: cell count max response, cells fed with added oleic acid
# In short: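 Laser-scanning cytometry quantifies lipid droplet accumulation (500–530 nm total intensity; droplet/cell object ratio) in oleic acid-fed (400 uM added) Drosophila S3 cells treated with a concentration series. 20 uM Triacsin C defined 100% inhibition.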
# [1] = measured here: cell number channel AC50, cells fed with added oleic acid
# [2] = measured here: lipid fluorescence (Fed channel) AC50, cells fed with added oleic acid
SMILES,cell number change [%],AC50 [1],AC50 [2]
COc1ccccc1NC(=O)C(C)OC(=O)C1CCC(C(C)(C)C)CC1 (stereo unspecified),-39.4,"20.6 µM [falling, single point]","23.1 µM [falling, single point]"
Brc1cc(/C=N/n2cnnc2)oc1Br,-67.6,"20.6 µM [falling, partial curve]",
Cc1cccc(NC(=O)CNC(=O)Cc2ccc(S(=O)(=O)N3CCOCC3)s2)c1C,1.97,,"16.4 µM [rising, single point]"
COc1cc([N+](=O)[O-])cc(/C=N/NC(=O)CSc2nnc(-c3ccccc3)n2C)c1O,,"0.82 µM [rising, partial curve]","4.61 µM [rising, partial curve]"
O=C(CSc1n[nH]c(-c2ccncc2)n1)Nc1ccccn1,-4.95,,"5.17 µM [rising, single point]"
Cn1c(C(=O)NC2CCCCC2)cc2c(=O)n(C)c3ccccc3c21,36.5,"0.92 µM [rising, full curve, poor fit]","1.84 µM [rising, partial curve]"
Cc1ccc(NC(=O)C2CCN(S(=O)(=O)c3ccc(Cl)c(C(F)(F)F)c3)CC2)nc1,-3.31,,"0.58 µM [falling, single point]"
CC1=NOC(=O)/C1=C\c1ccc(-c2ccccc2Br)o1,-74.5,"29.1 µM [falling, single point]",
O=C(CN1c2cccc3cccc(c23)S1(=O)=O)NCc1ccc(Cl)cc1,-58.4,"29.1 µM [falling, single point]","18.4 µM [falling, partial curve]"
COc1ccc(C2(c3ccc(OC(C)=O)cc3OC(C)=O)CC(c3ccccc3)NC(=S)N2)cc1 (stereo unspecified),-12.3,,"0.58 µM [rising, partial curve, poor fit]"
O=C(Nc1ccc2c(c1)nc1n2CCCCC1)c1cc(S(=O)(=O)N2CCOCC2)ccc1Cl,-29.8,,"18.4 µM [falling, single point]"
CCCCCCCOC(=O)c1nc(Cl)c(Cl)c(N)c1Cl,-44.6,,"0.00517 µM [falling, full curve, poor fit]"
O=C(CN1CCN(Cc2ccccc2)CC1)N=Nc1c(O)[nH]c2ccccc12,9.56,,"1.16 µM [rising, full curve, poor fit]"
CCc1nc(NCCCCCO)c2nnn(Cc3ccccc3F)c2n1,19,"4.11 µM [rising, partial curve, poor fit]",
COCCCNc1nc2cc(OC)c(OC)cc2c2nc(-c3ccccc3)nn12,-35,"29.1 µM [falling, single point]","29.1 µM [falling, single point]"
Cc1ccc(NC(=S)Nc2cccc3cnccc23)cc1C,54.5,,
COc1ccc(CNC(=O)C(c2ccco2)N(C(=O)c2snc(C(N)=O)c2N)c2cccc(OC)c2)cc1 (stereo unspecified),17.7,,"0.184 µM [falling, full curve]"

SMILES,cell number change [%],AC50 [1],AC50 [2]
COCc1cc(C)nc(OCC(=O)N/N=C/c2ccc(OC)c(OC)c2)c1C#N,-13.4,,"5.8 µM [rising, partial curve]"
Cc1ccc(NC(=O)CSc2nnc(-c3cc(C)on3)o2)cc1,-1.9,,"29.1 µM [falling, single point]"
CCNc1nc(NC(C)C)nc(N(C)C#N)n1,34.6,"0.92 µM [rising, full curve, poor fit]","29.1 µM [rising, single point]"
COc1cccc(N(C(=O)c2snc(C(N)=O)c2N)C(C(=O)NCC2CCCO2)c2ccc3ncccc3c2)c1 (stereo unspecified),25.6,,"0.13 µM [falling, full curve, poor fit]"
COc1ccc(C)cc1NC(=O)COCC(=O)O,8.68,"0.231 µM [falling, partial curve, poor fit]","0.0184 µM [falling, full curve]"
CCOC(=O)CCc1c(C)c2ccc(O)cc2oc1=O,-102,"20.6 µM [falling, partial curve]","20.6 µM [falling, partial curve]"
S=c1[nH]nc(-c2ccc3ncccc3c2)n1-c1ccc2c(c1)OCCO2,-6.84,"0.731 µM [rising, partial curve]","0.92 µM [rising, full curve, poor fit]"
O=C(Nc1nccs1)c1ccc(S(=O)(=O)c2ccccc2)cc1,-7.96,,"32.6 µM [rising, single point]"
O=C(c1cccnc1)N1CCN(CCCc2ccccc2)CC1,17,,"0.146 µM [rising, full curve]"
COc1cc2c3c(c1OC)C1(C=CC(=O)C=C1)CC3N(C(=O)CCC(=O)O)CC2 (stereo unspecified),11.7,,"0.164 µM [rising, full curve, poor fit]"
O=C(NC1CCCC1)C(c1ccc(F)cc1)N(Cc1ccc(F)cc1)C(=O)CCl (stereo unspecified),8.45,,"8.2 µM [rising, partial curve]"
COc1ccc(Cl)cc1NC(=O)Cn1c(=O)n2nc(C)nc2c2ccccc21,,"0.13 µM [rising, full curve, poor fit]","0.116 µM [rising, full curve, poor fit]"
CCOC(=O)c1ccc(NC(=O)c2ccc3c(c2)C(=O)N(CC2CCCO2)C3=O)cc1 (stereo unspecified),-56,"18.4 µM [falling, partial curve]","5.17 µM [falling, full curve]"
CCCCCCn1c(N(CC)CC)nc2c1c(=O)[nH]c(=O)n2C,3.32,"0.82 µM [rising, full curve]","2.06 µM [rising, partial curve]"
Fc1cccc(NC(=S)NCc2ccc(Cl)cc2)c1,-11.5,"7.31 µM [falling, single point]","2.06 µM [falling, partial curve]"
Cc1c(NC(=O)C(C#N)=C2CCCCC2)c(=O)n(-c2ccccc2)n1C,1.36,,
CCN(CC)S(=O)(=O)c1ccc2c(c1)nc(CCC(=O)Nc1cccc(C(F)(F)F)c1)n2CC,119,,

# Sorted by count of non-hydrogen atoms (descending): part of the list above.
SMILES,cell number change [%],AC50 [1],AC50 [2]
COc1cccc(N(C(=O)c2snc(C(N)=O)c2N)C(C(=O)NCC2CCCO2)c2ccc3ncccc3c2)c1 (stereo unspecified),25.6,,"0.13 µM [falling, full curve, poor fit]"
COCc1cc(C)nc(OCC(=O)N/N=C/c2ccc(OC)c(OC)c2)c1C#N,-13.4,,"5.8 µM [rising, partial curve]"
COc1ccc(C)cc1NC(=O)COCC(=O)O,8.68,"0.231 µM [falling, partial curve, poor fit]","0.0184 µM [falling, full curve]"
